Laboratory results as given in the supplement of paper PMC6078165.

Test system: Hs578T
Assay: relative JC-1 red fluorescence (viability) vs pre-drug, coculture with fibroblast (fraction); higher = more viable cancer cells
Experimental: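 JC-1 labelled TNBC cells cocultured 1:1 (1,500 cells each) with CellTrace Violet stained primary or stromal fibroblasts in 384-well plates in FluoroBrite medium, treated with one of 42 anticancer drugs at 0.1, 1, 10 or 100 uM. JC-1 red fluorescence (mitochondrial integrity in cancer cells only) was read by plate reader every 8 h for 72 h. Values are normalised to each well's pre-drug value. The stock of one drug was tenfold lower, so its dose labels may be too high.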

CN(C)CCOc1ccc(/C(=C(/CCCl)c2ccccc2)c2ccccc2)cc1 [Toremifene]
relative JC-1 red fluorescence
Details	8 h	16 h	24 h	32 h	40 h	48 h	56 h	64 h	72 h
0.1 µM	0.8897	0.7963	0.757	0.723	0.65376	0.617	0.58113	0.534	0.5178
1 µM	0.9254	0.849	0.792	0.751	0.691	0.645	0.601	0.558	0.532
10 µM	0.967	0.96	0.923	0.9086	0.8956	0.8761	0.8711	0.834	0.824
100 µM	0.485	0.38	0.39	0.356	0.312	0.272	0.252	0.213	0.184

relative JC-1 red fluorescence
Details	8 h	16 h	24 h	32 h	40 h	48 h	56 h	64 h	72 h
0.1 µM, coculture fibroblast: C12385	0.821	0.707	0.614	0.54276	0.476	0.428	0.392	0.372	0.359
0.1 µM, coculture fibroblast: H6013	0.819	0.7687	0.715	0.6816	0.644	0.62	0.594	0.595	0.561
0.1 µM, coculture fibroblast: H6019	0.778	0.695	0.647	0.559	0.515	0.485	0.457	0.437	0.416
0.1 µM, coculture fibroblast: H6076	0.917	0.855	0.808	0.787	0.739	0.737	0.713	0.708	0.707
0.1 µM, coculture fibroblast: H6231	0.9168	0.786	0.704	0.664	0.5921	0.566	0.518	0.504	0.484
0.1 µM, coculture fibroblast: HADF	0.854	0.779	0.703	0.654	0.608	0.578	0.547	0.539	0.5192
0.1 µM, coculture fibroblast: HCFa	0.823	0.741	0.669	0.618	0.551	0.52	0.486	0.467	0.423
0.1 µM, coculture fibroblast: HCPF	0.911	0.812	0.764	0.7399	0.674	0.6568	0.628	0.597	0.577
0.1 µM, coculture fibroblast: HHSteC	0.865	0.75	0.681	0.613	0.548	0.518	0.484	0.462	0.432
0.1 µM, coculture fibroblast: HMF	0.858	0.761	0.706	0.6822	0.629	0.602	0.572	0.558	0.54
0.1 µM, coculture fibroblast: HPFa	0.9099	0.81	0.7252	0.657	0.595	0.554	0.506	0.475	0.43
0.1 µM, coculture fibroblast: HUF	0.843	0.7225	0.7027	0.5994	0.545	0.5116	0.4852	0.48266	0.479
0.1 µM, coculture fibroblast: Hs27A	0.909	0.8197	0.7888	0.748	0.689	0.677	0.636	0.629	0.578
0.1 µM, coculture fibroblast: Hs343T	0.895	0.786	0.731	0.71	0.64	0.615	0.579	0.549	0.55
0.1 µM, coculture fibroblast: WS1	0.841	0.731	0.66	0.557	0.489	0.467	0.435	0.428	0.424
1 µM, coculture fibroblast: C12385	0.853	0.763	0.7079	0.63	0.5652	0.531	0.5051	0.488	0.478
1 µM, coculture fibroblast: H6013	0.9068	0.854	0.822	0.7997	0.763	0.74	0.7236	0.7089	0.6756
1 µM, coculture fibroblast: H6019	0.8045	0.722	0.673	0.579	0.531	0.493	0.451	0.427	0.396
1 µM, coculture fibroblast: H6076	0.917	0.848	0.81136	0.7856	0.748	0.744	0.713	0.712	0.709
1 µM, coculture fibroblast: H6231	0.898	0.7817	0.738	0.858	0.822	0.813	0.772	0.758	0.764
1 µM, coculture fibroblast: HADF	0.9257	0.8821	0.845	0.813	0.777	0.762	0.734	0.726	0.706
1 µM, coculture fibroblast: HCFa	0.887	0.842	0.81	0.761	0.687	0.657	0.614	0.587	0.539
1 µM, coculture fibroblast: HCPF	0.905	0.815	0.7816	0.778	0.718	0.697	0.682	0.641	0.632
1 µM, coculture fibroblast: HHSteC	0.934	0.859	0.813	0.766	0.709	0.672	0.638	0.607	0.561
1 µM, coculture fibroblast: HMF	0.916	0.869	0.85	0.857	0.815	0.802	0.77	0.767	0.754
1 µM, coculture fibroblast: HPFa	0.929	0.883	0.784	0.723	0.655	0.612	0.56	0.529	0.476
1 µM, coculture fibroblast: HUF	0.8817	0.7974	0.74	0.631	0.562	0.514	0.472	0.451	0.434
1 µM, coculture fibroblast: Hs27A	0.9152	0.901	0.857	0.8445	0.799	0.789	0.766	0.769	0.723
1 µM, coculture fibroblast: Hs343T	0.93133	0.836	0.8	0.807	0.748	0.731	0.69	0.671	0.665
1 µM, coculture fibroblast: WS1	0.835	0.736	0.678	0.601	0.548	0.533	0.504	0.4909	0.4891
10 µM, coculture fibroblast: C12385	0.864	0.871	0.821	0.867	0.866	0.872	0.875	0.858	0.845
10 µM, coculture fibroblast: H6013	0.9181	0.969	0.966	0.969	0.966	0.963	0.958	0.96	0.928
10 µM, coculture fibroblast: H6019	0.813	0.911	0.789	0.827	0.8446	0.85	0.75	0.852	0.809
10 µM, coculture fibroblast: H6076	0.827	0.844	0.785	0.748	0.797	0.769	0.891	0.9663	0.9384
10 µM, coculture fibroblast: H6231	0.977	0.908	0.898	0.973	0.949	0.955	0.923	0.91	0.886
10 µM, coculture fibroblast: HADF	0.9527	0.758	0.781	0.765	0.7836	0.855	0.785	0.792	0.858
10 µM, coculture fibroblast: HCFa	0.931	0.856	0.801	0.856	0.806	0.878	0.868	0.907	0.932
10 µM, coculture fibroblast: HCPF	0.9902	0.837	0.848	0.773	0.809	0.898	0.729	0.7663	0.858
10 µM, coculture fibroblast: HHSteC	0.9328	0.9437	0.9636	0.911	0.9066	0.903	0.829	0.891	0.911
10 µM, coculture fibroblast: HMF	0.968	0.928	0.839	0.847	0.9818	0.975	0.9487	0.924	0.902
10 µM, coculture fibroblast: HPFa	0.9182	0.9062	0.9033	0.912	0.907	0.901	0.884	0.8778	0.8416
10 µM, coculture fibroblast: HUF	0.8883	0.831	0.829	0.7887	0.751	0.7204	0.682	0.654	0.629
10 µM, coculture fibroblast: Hs27A	0.9406	0.952	0.898	0.841	0.845	0.913	0.856	0.819	0.898
10 µM, coculture fibroblast: Hs343T	0.869	0.915	0.9934	0.977	0.9358	0.9388	0.91254	0.8688	0.854
10 µM, coculture fibroblast: WS1	0.847	0.873	0.837	0.87	0.862	0.877	0.879	0.865	0.847
100 µM, coculture fibroblast: C12385	0.421	0.301	0.286	0.21	0.167	0.138	0.115	0.0939	0.0763
100 µM, coculture fibroblast: H6013	0.447	0.336	0.315	0.282	0.242	0.216	0.187	0.167	0.126
100 µM, coculture fibroblast: H6019	0.463	0.348	0.356	0.282	0.249	0.23	0.203	0.188	0.167
100 µM, coculture fibroblast: H6076	0.512	0.436	0.4199	0.3936	0.34191	0.313	0.27	0.232	0.194
100 µM, coculture fibroblast: H6231	0.562	0.471	0.418	0.39	0.335	0.304	0.263	0.234	0.205
100 µM, coculture fibroblast: HADF	0.44	0.312	0.2589	0.2185	0.188	0.1588	0.1279	0.111	0.0727
100 µM, coculture fibroblast: HCFa	0.5743	0.4403	0.417	0.377	0.3343	0.3071	0.2732	0.255	0.2043
100 µM, coculture fibroblast: HCPF	0.559	0.462	0.397	0.378	0.319	0.296	0.283	0.221	0.192
100 µM, coculture fibroblast: HHSteC	0.436	0.339	0.323	0.284	0.254	0.224	0.194	0.172	0.132
100 µM, coculture fibroblast: HMF	0.443	0.33	0.319	0.298	0.25	0.222	0.188	0.154	0.127
100 µM, coculture fibroblast: HPFa	0.499	0.403	0.365	0.334	0.3	0.271	0.239	0.215	0.174
100 µM, coculture fibroblast: HUF	0.511	0.483	0.479	0.392	0.342	0.309	0.272	0.24	0.216
100 µM, coculture fibroblast: Hs27A	0.572	0.457	0.397	0.357	0.314	0.302	0.265	0.248	0.197
100 µM, coculture fibroblast: Hs343T	0.502	0.389	0.4	0.383	0.335	0.304	0.274	0.234	0.207
100 µM, coculture fibroblast: WS1	0.448	0.365	0.355	0.27	0.223	0.197	0.167	0.147	0.125

Values are relative to the signal before dosing, not to a vehicle control; the signal also falls without drug.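 Fibroblast labels name human fibroblasts: mostly primary ones from tissues such as uterus (C12385, HUF), lung (H6013), bone (Hs27A), adrenal (HADF) and skin (WS1), plus mammary HMF and breast cancer-associated Hs343T. The cancer cells are basal-like or mesenchymal-like triple-negative breast cancer lines. The paper calls a changed response a hit when it shifts by more than 3x the replicate standard deviation. The tissue of the other fibroblasts is not given here.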
